These results are taken from PubChem BioAssay AID651595 (National Center for Advancing Translational Sciences (NCATS), 2012).

In all, about 1,100 compounds went through this assay and fewer than 10 were called active. About 6% were inconclusive and are not listed. Calls follow the shape of the dose curve; as a rule, active = well fitted cell-killing curve with a large enough effect; inconclusive = small, poorly fitted or top-dose-only effect; inactive = flat fitted curve, though single readings scatter. This is one part of the list.

A short description of the test: qHTS of Nrf2 Activators: Hit Validation in Cytotox Assay.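 Also: compound exposure lasted 24 hours before the ATP readout; 0% is about no effect.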 To be noted: Cell viability counter-screen for Nrf2 activator hits; series mostly up to 46.1 µM; activity change, negative = cytotoxicity: at the top concentration. Summed up: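 Intracellular ATP measured with CellTiter-Glo luminescence (30 min, room temperature) as a viability read-out. Cells: AREc32_fluc, cultured overnight before 24 h compound exposure at 7 concentrations, 37 °C; activity here marks cytotoxicity.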
(In general: qHTS replaces the single test concentration by a dilution series.)
For the compound `CCOC(=O)c1sc(NC(=O)c2ccccc2F)c(C(N)=O)c1C`, the “activity change, negative = cytotoxicity” value was inactive: 7.14%. In the case of `C/C(=N\NC(=O)c1cccc(S(=O)(=O)Nc2cccc(Cl)c2)c1)c1cccs1`, the “activity change, negative = cytotoxicity” value was inactive: -26%.

For the compound `O=C(Nc1cccn2ncnc12)c1cccc(C(F)(F)F)c1`, the “activity change, negative = cytotoxicity” value is inactive: 0.124%.

`Cc1cc(=O)n2nc(-c3ccccc3)sc2c1C#N`: the “activity change, negative = cytotoxicity” value was inactive: 1.07%.

Take `CC(C)Nc1ccc(-c2nc(-c3ccco3)no2)cc1[N+](=O)[O-]`: the “activity change, negative = cytotoxicity” value was inactive: 10.1%. Take `Cc1c(NC(=O)Nc2cccs2)cccc1[N+](=O)[O-]`: the “activity change, negative = cytotoxicity” value is inactive: 9.6%. For the compound `O=C(Nc1cc(Cl)ccc1-n1cncn1)c1ccco1`, the “activity change, negative = cytotoxicity” value is inactive: 15.6%.

Take `S=C(NNc1ccc2ccccc2c1)NC1CCCCC1`: the “activity change, negative = cytotoxicity” value is inactive: -1.82%. On to `COC(=O)c1c(NC(=O)/C=C/C(=O)O)sc(C)c1-c1ccc(C(C)C)cc1`, for which the “activity change, negative = cytotoxicity” value is inactive: -2.1%. On to `COc1ccccc1NC(=O)c1ncn(-c2ccccc2)n1`, for which the “activity change, negative = cytotoxicity” value is inactive: -0.953%. As for `COc1ccccc1C(=O)O/N=C(\N)c1ccc(Cl)cc1`, the figure is inactive: 2.4%; as for `O=C(/C=C/c1ccco1)NC(=S)Nc1ccccc1N1CCCC1`, inactive: 6.04%. In the case of `Clc1nc2sccn2c1/C=N/n1cnc2ccccc21` it was inactive: 6.23%.

Regarding `COn1c(=O)c(-c2cccc(Br)c2)[n+]([O-])c2ccccc21`, the “activity change, negative = cytotoxicity” value is inactive: -2.87%.

As to `Cc1noc(C(=O)Nc2cc(Cl)ccc2O)c1Cl`, the “activity change, negative = cytotoxicity” value is inactive: -29%. In the case of `FC(F)(F)c1cc(-c2cccs2)nc(-n2cc(Br)cn2)n1` it was inactive: 0.601%. `Cn1cnnc1Sc1ccc(/C=C/C(=O)c2ccc(O)cc2)cc1[N+](=O)[O-]`: the “activity change, negative = cytotoxicity” value was inactive: -12.4%. Take `CSc1nc(Oc2ccc3ccccc3c2)c2sccc2n1`: the “activity change, negative = cytotoxicity” value is inactive: 7.5%.

As to `Cc1sc2ncnc(NCc3ccco3)c2c1C`, the “activity change, negative = cytotoxicity” value was inactive: -11.6%.

Consider `Fc1cccc(Cl)c1/C=N/Nc1ccccn1`, for which the “activity change, negative = cytotoxicity” value is inactive: -6.88%. With `COc1cccc(C2=CC(c3cccs3)n3nnnc3N2)c1` (stereo not drawn), the “activity change, negative = cytotoxicity” value is inactive: 1.85%. `CC(=O)N(/N=C1\Sc2ccccc2C1=O)c1ccccc1`: the “activity change, negative = cytotoxicity” value is inactive: -6.11%.

As to `N/C(=N\OC(=O)/C=C/c1ccccc1)c1cccnc1`, the “activity change, negative = cytotoxicity” value was inactive: -0.168%.
